Assay results taken from the supplement of paper PMC10849652.
This is one part of the list.

The chains behind the UniProt entries cited, without tags or fusion partners. Where a name states a change or a piece, a line headed by the entry shows the natural chain unless it says otherwise.
UniProt P24752: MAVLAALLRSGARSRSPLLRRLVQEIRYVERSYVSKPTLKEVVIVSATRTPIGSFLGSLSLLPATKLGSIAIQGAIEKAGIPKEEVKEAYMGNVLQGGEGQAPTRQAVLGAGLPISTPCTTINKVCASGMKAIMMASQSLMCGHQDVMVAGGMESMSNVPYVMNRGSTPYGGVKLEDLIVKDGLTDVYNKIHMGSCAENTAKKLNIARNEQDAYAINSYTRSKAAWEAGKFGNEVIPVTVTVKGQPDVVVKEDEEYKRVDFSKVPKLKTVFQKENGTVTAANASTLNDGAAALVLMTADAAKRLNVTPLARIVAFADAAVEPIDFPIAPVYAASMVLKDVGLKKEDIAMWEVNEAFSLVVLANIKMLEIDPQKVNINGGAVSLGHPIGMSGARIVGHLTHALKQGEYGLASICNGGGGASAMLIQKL
UniProt P16219: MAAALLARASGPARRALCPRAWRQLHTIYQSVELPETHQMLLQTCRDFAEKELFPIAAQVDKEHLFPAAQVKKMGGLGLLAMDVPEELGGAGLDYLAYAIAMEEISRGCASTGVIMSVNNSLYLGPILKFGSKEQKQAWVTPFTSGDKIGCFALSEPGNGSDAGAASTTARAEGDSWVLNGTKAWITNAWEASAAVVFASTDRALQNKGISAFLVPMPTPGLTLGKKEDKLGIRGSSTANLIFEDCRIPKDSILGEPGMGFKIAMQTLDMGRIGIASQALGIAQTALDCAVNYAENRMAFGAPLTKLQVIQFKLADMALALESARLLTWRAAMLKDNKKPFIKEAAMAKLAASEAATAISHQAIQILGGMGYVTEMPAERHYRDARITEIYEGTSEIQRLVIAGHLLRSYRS
UniProt Q9NZ32, whole entry, looked up: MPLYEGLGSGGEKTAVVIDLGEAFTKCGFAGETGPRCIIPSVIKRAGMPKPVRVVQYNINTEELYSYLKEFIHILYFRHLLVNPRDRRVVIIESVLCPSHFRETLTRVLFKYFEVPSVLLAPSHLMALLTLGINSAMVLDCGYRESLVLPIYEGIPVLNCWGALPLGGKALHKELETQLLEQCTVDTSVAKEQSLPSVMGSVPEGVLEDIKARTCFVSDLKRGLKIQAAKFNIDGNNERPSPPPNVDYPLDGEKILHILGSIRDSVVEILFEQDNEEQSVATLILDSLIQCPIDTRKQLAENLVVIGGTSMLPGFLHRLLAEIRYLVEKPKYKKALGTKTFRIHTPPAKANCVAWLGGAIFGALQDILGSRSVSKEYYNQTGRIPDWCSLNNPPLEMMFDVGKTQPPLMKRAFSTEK
UniProt O14734: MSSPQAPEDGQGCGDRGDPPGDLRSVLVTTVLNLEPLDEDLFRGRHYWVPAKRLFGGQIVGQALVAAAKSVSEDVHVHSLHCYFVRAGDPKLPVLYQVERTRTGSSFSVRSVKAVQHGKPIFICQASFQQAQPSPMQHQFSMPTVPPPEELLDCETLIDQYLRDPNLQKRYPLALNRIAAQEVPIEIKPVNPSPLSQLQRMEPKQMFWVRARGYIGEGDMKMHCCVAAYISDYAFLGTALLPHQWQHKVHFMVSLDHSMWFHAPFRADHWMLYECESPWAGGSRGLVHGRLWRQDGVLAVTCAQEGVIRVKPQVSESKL
UniProt O15439: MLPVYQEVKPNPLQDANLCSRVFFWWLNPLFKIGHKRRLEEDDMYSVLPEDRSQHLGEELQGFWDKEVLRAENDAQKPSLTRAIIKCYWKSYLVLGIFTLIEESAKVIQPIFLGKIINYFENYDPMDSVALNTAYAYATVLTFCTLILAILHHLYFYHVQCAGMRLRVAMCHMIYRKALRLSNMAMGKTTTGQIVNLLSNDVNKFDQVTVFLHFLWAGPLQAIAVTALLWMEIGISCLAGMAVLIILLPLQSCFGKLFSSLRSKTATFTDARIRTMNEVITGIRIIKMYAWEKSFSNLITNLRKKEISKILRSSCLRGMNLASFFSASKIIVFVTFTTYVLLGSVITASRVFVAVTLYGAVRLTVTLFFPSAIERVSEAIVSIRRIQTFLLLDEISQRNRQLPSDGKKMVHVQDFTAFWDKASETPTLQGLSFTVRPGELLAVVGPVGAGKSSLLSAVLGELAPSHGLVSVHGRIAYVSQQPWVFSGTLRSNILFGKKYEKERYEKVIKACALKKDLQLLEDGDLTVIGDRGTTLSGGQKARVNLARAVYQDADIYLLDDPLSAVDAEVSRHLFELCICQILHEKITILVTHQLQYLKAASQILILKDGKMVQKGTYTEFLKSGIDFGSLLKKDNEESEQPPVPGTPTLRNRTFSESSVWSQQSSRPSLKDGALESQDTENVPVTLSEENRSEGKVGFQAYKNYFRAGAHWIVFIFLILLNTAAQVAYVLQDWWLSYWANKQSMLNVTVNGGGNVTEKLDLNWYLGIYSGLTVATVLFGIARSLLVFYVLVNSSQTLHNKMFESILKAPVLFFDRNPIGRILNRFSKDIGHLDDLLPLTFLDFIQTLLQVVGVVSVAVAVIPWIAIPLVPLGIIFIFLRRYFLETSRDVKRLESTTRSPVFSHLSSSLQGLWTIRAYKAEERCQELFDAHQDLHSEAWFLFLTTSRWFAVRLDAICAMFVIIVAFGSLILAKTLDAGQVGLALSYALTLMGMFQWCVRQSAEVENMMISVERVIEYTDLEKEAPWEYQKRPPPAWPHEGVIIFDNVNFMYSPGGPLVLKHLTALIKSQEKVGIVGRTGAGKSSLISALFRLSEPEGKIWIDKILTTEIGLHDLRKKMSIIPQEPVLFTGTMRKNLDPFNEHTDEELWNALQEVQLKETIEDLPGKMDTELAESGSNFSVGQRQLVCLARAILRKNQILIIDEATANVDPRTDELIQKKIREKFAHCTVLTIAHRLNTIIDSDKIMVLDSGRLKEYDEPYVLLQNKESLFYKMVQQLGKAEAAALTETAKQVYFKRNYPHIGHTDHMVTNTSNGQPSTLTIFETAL
UniProt Q9NRN7: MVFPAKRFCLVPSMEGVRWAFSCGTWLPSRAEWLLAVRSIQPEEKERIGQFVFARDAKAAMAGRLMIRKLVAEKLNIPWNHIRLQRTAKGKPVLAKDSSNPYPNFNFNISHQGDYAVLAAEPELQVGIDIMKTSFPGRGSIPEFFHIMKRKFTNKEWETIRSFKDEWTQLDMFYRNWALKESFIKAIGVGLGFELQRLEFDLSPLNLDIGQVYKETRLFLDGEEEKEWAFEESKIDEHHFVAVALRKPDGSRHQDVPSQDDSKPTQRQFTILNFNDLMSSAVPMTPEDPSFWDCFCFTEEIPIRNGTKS
UniProt O96019, whole entry, looked up: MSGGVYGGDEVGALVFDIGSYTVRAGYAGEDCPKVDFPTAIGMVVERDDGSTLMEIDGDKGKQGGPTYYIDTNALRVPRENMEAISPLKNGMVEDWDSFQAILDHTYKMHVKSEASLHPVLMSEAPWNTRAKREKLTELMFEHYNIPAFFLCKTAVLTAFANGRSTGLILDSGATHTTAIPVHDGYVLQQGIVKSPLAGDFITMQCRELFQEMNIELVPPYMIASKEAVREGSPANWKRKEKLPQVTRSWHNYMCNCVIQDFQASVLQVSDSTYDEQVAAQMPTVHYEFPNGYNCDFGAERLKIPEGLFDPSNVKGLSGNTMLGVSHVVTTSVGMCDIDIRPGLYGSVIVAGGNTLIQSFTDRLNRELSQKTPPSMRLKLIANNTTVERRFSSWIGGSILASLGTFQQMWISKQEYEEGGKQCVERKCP
UniProt Q6DHV7: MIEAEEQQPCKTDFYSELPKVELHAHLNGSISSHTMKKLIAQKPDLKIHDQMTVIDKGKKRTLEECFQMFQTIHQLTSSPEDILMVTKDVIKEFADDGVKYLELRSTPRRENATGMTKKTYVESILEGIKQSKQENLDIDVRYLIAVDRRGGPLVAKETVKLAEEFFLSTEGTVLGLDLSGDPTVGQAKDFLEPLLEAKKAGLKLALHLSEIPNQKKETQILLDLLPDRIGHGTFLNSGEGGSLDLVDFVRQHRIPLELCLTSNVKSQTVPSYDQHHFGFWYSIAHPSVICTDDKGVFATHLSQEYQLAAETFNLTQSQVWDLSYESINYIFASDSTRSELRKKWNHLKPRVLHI
UniProt P21399: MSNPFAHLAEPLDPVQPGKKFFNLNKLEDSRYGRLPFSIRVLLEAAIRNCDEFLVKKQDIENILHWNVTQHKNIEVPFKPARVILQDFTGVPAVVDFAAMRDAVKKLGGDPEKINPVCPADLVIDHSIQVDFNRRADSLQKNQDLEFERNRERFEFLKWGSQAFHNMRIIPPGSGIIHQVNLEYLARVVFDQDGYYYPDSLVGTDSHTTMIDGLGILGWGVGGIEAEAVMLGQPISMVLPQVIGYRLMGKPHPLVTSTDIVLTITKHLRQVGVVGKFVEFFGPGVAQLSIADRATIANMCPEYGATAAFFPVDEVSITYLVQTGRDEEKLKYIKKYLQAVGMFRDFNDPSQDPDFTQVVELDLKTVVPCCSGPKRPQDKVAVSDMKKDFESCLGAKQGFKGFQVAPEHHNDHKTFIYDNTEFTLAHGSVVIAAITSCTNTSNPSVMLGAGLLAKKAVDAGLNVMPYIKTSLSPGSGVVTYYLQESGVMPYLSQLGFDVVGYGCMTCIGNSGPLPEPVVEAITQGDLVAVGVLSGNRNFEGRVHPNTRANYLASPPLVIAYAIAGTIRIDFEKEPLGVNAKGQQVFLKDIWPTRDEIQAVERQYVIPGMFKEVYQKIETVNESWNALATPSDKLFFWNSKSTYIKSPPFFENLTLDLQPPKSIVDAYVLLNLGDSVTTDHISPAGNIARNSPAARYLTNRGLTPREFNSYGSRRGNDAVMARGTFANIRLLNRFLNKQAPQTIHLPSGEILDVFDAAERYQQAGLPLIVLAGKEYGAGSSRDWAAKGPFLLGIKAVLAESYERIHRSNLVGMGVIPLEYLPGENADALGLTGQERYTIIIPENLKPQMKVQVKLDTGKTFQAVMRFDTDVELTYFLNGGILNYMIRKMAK
UniProt P09110: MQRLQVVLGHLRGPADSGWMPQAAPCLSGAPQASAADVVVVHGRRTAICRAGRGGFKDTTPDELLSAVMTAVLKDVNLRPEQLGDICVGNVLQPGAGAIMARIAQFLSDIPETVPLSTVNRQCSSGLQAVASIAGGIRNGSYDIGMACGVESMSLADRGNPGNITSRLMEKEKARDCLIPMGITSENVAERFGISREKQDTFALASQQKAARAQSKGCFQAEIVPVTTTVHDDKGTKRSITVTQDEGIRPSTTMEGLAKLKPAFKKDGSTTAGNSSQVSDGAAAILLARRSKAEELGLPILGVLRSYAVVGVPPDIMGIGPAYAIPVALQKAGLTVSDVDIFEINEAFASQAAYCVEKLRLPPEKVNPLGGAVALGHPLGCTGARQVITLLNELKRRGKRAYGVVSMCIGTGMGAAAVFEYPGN
UniProt Q8NE71: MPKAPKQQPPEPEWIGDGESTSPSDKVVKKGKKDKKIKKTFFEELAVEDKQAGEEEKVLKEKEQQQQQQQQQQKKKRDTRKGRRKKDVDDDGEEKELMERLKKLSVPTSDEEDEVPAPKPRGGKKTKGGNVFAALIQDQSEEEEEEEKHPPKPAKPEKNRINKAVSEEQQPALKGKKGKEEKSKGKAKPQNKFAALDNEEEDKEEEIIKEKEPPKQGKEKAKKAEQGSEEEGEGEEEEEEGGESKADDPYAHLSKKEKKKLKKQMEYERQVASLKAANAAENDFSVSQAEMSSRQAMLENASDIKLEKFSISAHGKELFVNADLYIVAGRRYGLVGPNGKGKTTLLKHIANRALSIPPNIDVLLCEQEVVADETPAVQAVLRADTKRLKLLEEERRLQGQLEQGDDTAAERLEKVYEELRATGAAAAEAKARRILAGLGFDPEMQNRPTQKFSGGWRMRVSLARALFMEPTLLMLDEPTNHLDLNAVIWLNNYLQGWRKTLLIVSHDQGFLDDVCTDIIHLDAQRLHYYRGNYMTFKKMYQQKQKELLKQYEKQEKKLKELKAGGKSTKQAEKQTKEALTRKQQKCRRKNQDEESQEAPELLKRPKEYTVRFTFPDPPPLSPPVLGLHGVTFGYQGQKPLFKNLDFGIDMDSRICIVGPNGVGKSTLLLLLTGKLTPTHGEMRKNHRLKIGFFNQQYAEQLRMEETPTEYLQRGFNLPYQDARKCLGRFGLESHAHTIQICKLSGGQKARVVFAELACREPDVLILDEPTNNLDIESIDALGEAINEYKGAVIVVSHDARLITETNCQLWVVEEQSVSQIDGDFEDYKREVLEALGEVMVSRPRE
UniProt Q9H568: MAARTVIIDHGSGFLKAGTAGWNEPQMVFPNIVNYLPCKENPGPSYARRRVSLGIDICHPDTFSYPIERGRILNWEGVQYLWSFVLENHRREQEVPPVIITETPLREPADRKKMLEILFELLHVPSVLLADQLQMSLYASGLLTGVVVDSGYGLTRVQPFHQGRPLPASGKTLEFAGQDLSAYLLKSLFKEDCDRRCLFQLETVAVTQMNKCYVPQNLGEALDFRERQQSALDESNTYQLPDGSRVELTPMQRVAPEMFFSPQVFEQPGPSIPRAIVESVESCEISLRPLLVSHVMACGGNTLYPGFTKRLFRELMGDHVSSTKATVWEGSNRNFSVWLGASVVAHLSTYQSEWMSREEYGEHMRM

Compound: Cn1cc(-c2ccc3c(c2)CCN3C(=O)Cc2cccc(C(F)(F)F)c2)c2c(N)ncnc21
Experiment: log2 fold change, soluble protein after heating vs DMSO (PISA); higher = thermal stabilisation; K562 cells, 10 uM, 30 min; active = over 0.2 and 3.5 SD of the protein, either way, in both replicates (recomputed)
Outline: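 K562 cells at 2×10^6 cells/mL were given 10 μM compound for 30 min. Aliquots then went through 3 min of heating across 48°C-58°C, were pooled, and were extracted in PBS with 0.5% NP-40 at 4°C, and the supernatant after 21,000xg for 90 min was quantified by TMTpro 16plex LC-MS/MS with channel sums equalised. Thermal stability relative to control samples, from duplicates, is given as log2 fold change.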

log2 fold change, inactive:
ACACA isoform 4 (UniProt Q13085) -0.075
ACSS2 isoform 2 (UniProt Q9NR19) 0.035
ACOX1 isoform 2 (UniProt Q15067) 0.021
ACAT1 (UniProt P24752) -0.05
ACTR2 (UniProt P61160) 0.003
ACADS (UniProt P16219) 0.015
ADAM10 (UniProt O14672) 0.029
ABHD12 isoform 2 (UniProt Q8N2K0) 0
ADAR isoform 4 (UniProt P55265) -0.083
ACTR10 (UniProt Q9NZ32) -0.105
ABLIM1 (UniProt O14639) 0.477
ABCF3 (UniProt Q9NUQ8) -0.147
ABRAXAS2 (UniProt Q15018) 0.014
ACTA1 (UniProt P68133) -0.022
ADAM17 (UniProt P78536) -0.014
A2M (UniProt P01023) 0.17
ACADSB (UniProt P45954) 0.081
ACOT8 (UniProt O14734) 0.018
ABCC4 (UniProt O15439) 0.006
ACAD8 (UniProt Q9UKU7) 0.015
ACY1 (UniProt Q03154) 0.044
AASDHPPT (UniProt Q9NRN7) -0.011
ACTL6A (UniProt O96019) 0.02
ABCB7 isoform 2 (UniProt O75027) 0.051
ADAL (UniProt Q6DHV7) 0.056
ACTR6 (UniProt Q9GZN1) 0.049
ACO1 (UniProt P21399) 0.028
ACTR3 (UniProt P61158) -0.009
ABCD3 (UniProt P28288) 0.042
ACAA1 (UniProt P09110) 0.02
ABCE1 (UniProt P61221) 0.001
ADAT2 (UniProt Q7Z6V5) 0.025
ABCF1 (UniProt Q8NE71) -0.052
ACTN4 (UniProt O43707) -0.021
AARS (UniProt P49588) 0.038
ACTL8 (UniProt Q9H568) -0.018

2 records drawn at random from the list so far:
log2 fold change, inactive:
ACTR6 (UniProt Q9GZN1) 0.049
ACOX1 isoform 2 (UniProt Q15067) 0.021
